# Experimental data: the supplement of paper PMC12823440, “Inhibitors supercharge kinase turnover through native proteolytic circuits” (Nature, 2025)
# Amino acid sequences for entries named in this document (tags omitted). A change or cut given only in a name is not applied to a line headed by its entry.
# UniProt P06239: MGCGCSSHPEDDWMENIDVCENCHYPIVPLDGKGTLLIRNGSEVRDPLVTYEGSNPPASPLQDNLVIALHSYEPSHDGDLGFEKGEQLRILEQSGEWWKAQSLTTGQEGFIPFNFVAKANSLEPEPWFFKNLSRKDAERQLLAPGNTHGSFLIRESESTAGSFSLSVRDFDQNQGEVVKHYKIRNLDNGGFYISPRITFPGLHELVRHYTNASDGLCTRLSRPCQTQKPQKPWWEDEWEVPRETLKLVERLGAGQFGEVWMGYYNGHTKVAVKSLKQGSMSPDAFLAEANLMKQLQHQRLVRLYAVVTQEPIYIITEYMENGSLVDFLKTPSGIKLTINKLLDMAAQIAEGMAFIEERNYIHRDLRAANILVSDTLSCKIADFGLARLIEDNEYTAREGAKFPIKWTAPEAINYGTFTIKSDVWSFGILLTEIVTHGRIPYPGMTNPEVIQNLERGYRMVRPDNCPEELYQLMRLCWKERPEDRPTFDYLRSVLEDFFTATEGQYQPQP
# UniProt P53667: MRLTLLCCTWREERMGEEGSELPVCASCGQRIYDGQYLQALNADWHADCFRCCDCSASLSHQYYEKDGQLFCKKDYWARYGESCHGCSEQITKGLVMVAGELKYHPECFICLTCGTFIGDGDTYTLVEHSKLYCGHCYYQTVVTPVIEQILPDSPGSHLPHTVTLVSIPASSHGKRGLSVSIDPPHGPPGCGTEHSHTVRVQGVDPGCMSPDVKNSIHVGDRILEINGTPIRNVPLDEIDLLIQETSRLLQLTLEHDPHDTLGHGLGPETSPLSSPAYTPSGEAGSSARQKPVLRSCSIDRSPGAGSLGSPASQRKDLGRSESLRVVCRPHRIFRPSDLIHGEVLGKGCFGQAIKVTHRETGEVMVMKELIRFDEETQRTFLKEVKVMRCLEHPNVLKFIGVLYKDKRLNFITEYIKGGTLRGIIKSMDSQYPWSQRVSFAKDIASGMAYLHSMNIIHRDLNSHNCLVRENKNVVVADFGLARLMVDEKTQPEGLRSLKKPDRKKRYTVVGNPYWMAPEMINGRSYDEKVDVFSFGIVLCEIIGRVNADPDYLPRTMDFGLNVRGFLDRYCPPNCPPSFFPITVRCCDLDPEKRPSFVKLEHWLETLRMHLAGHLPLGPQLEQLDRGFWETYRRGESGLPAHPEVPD
# Where a name gives a salt, the structure may show the parent alone. The list shows a part of the results. The calls rarely recur for the same compound in another form.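 In K562 cells expressing nanoluciferase-fused kinases, luminescence was recorded at 4 h intervals between 2 and 18 h, normalized as percent of control with DMSO at 100% and a positive control at 0%. A significant (2 sigma) signal drop marks a time point as decreased. The authors' rule for a hit is not shown and takes in more than the number of time points.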
# Target: LCK (UniProt P06239)
# Experiment: number of time points (of 5) at which kinase-Nluc abundance scored as decreased, DMSO-normalised (count); higher = more persistent destabilization
# Conditions: K562; 2-18 h
row,SMILES,number of time points
1,CC(C)=CCC/C(C)=C/CC/C(C)=C/C=C/C(C)=C/C(=O)O [Peretinoin] (10 µM),0
2,C=CC(=O)N1CC[C@@H](Oc2nc(Nc3ccc(N4CCC(N5CCN(C)CC5)CC4)cc3)c(C(N)=O)nc2CC)C1 [Naquotinib (mesylate)] (2.5 µM),0
3,CC(Sc1nc2c(cnn2-c2cccc(Cl)c2)c(=O)[nH]1)C(N)=O (stereo not drawn) (10 µM),0
4,Cc1cc(O)c2c(c1)C(=O)c1cccc(O)c1C2=O [Chrysophanol] (2 µM),0
5,O=C1OC(/C=C/c2ccccc2)=NC/1=C\c1cccnc1 (10 µM),0

# Target: LIMK1 (UniProt P53667)
# Experiment: as above
# Conditions: K562; 2-18 h
row,SMILES,number of time points
1,CN1CCN(c2cc(-c3ccncc3)c(-c3ccc4ccccc4c3)nn2)CC1 (10 µM),0
2,CC(O)(C#Cc1ccc2c(c1)N(c1nc(N)ncc1Cl)CC2)c1nccs1 (stereo not drawn) (2.5 µM),0
3,COc1ccc(Nc2ncc(C(F)(F)F)c(NC3CC3)n2)cc1OC (10 µM),0
4,O=c1cc(N2CCOCC2)oc2c(-c3ccc4c(c3)OCCO4)csc12 (2.5 µM),0
5,N[C@@H]1CCCN(c2c(/C=C3\SC(=O)NC3=O)cccc2-c2ccccc2)C1 (10 µM),2
6,N#Cc1ccc(-c2cnc3[nH]cc(NC(=O)c4cccnc4)c3c2)cc1 (10 µM),0
7,COc1ccc(Br)cc1NC(=O)Nc1cccc2c1ccn2Cc1ccnc(N)c1 (2.5 µM),0
8,COc1cc(N2CCOCC2)ccc1Nc1ncc(F)c(Nc2ccccc2NS(C)(=O)=O)n1 (10 µM),0
9,COc1ccc(-c2cc(=O)c3c(OC)cc(OC)c(OC)c3o2)cc1 [6-Demethoxytangeretin] (10 µM),0
10,COc1cc2c(cc1O)C[C@H]1c3cc(O)c(OC)cc3CC[N@@+]1(C)C2 [Phellodendrine] (10 µM),0
11,CO[C@H]1C[C@@H]2CC[C@@H](C)[C@@](O)(O2)C(=O)C(=O)N2CCCC[C@H]2C(=O)O[C@H]([C@H](C)C[C@@H]2CC[C@@H](OC(=O)C(C)(CO)CO)[C@H](OC)C2)CC(=O)[C@H](C)/C=C(\C)[C@@H](O)[C@@H](OC)C(=O)[C@H](C)C[C@H](C)/C=C/C=C/C=C/1C [Temsirolimus] (2.5 µM),0
12,O=C(ON=C1c2ccccc2-c2nc3ccccc3nc21)c1ccco1 (2.5 µM),0
13,COc1ccc(S(=O)(=O)Nc2cc(-c3c(O)ccc4ccccc34)c(O)c3ccccc23)cc1 (10 µM),0
14,Cc1cccc(COc2cccc(/C=C3\C(=O)NN(c4ccccc4)C3=O)c2)c1 (10 µM),0
15,CC(C)Oc1ccc(F)c(-c2cnc(N)c(C(=O)Nc3cnccc3N3CCC[C@@H](C(=O)O)C3)n2)c1 (2 µM),0
16,COc1cc(F)ccc1-c1ncnc(Nc2cccc(C[S@](C)(=N)=O)c2)n1 [Atuveciclib] (2.5 µM),0
17,CC(C)n1ncnc1-c1cn2c(n1)-c1ccc(O[C@@H](C)C(N)=O)cc1OCC2 (10 µM),0
18,Cn1c(CNc2cccc(C(=O)NCc3ccccc3C(F)(F)F)c2)nnc1-c1ccncc1 (10 µM),0
19,O=Nc1c(-c2c(O)[nH]c3cc(Br)ccc23)[nH]c2ccccc12 [GSK 3 Inhibitor IX] (2.5 µM),0
20,Nc1ncc(C(=O)NC2CN(C(=O)C3CC3)C2)c2ccc(-c3cccc(F)c3)nc12 (2 µM),0
21,O=C(Nc1cc(Cl)cc2c1[nH]c1cnccc12)c1cccnc1 (10 µM),0
22,c1ccc(Cn2c(-c3ccc(OC[C@H](C4CCNCC4)n4c(-c5ccccc5)nc5ccccc54)cc3)nc3ccccc32)cc1 [Deltarasin] (2.5 µM),0
23,COc1cc2ncnc(Nc3cccc(I)c3)c2cc1OC (2.5 µM),0
24,Clc1ccc(C(c2ccc(Cl)cc2)[n+]2ccn(CC(OCc3ccc(Cl)cc3Cl)c3ccc(Cl)cc3Cl)c2)cc1 (stereo not drawn) [Calmidazolium chloride] (2.5 µM),3
25,O=C(Nc1cccnc1)c1cc(-c2ccnc(F)c2)ccc1OCc1ccccc1 (10 µM),0
26,c1nn(C2CCOCC2)cc1Nc1ncc2nnn(-c3ccc4cn[nH]c4c3)c2n1 (10 µM),0
27,COC(=O)[C@H](CCSC)NC(=O)c1ccc(NC[C@@H](N)CS)cc1-c1ccccc1 [FTI-277 (hydrochloride)] (10 µM),0
28,Cc1cc(Nc2cc(N)ncn2)c(=O)n2c1C(=O)NC21CCCCC1 [Tomivosertib] (10 µM),0

# In another format: two of the compounds above.
row	SMILES	number of time points
19	O=Nc1c(-c2c(O)[nH]c3cc(Br)ccc23)[nH]c2ccccc12 [GSK 3 Inhibitor IX] (2.5 µM)	0
20	Nc1ncc(C(=O)NC2CN(C(=O)C3CC3)C2)c2ccc(-c3cccc(F)c3)nc12 (2 µM)	0
